Results from PubChem BioAssay AID2685 (National Center for Advancing Translational Sciences (NCATS), 2010).
This is one part of the list. These are further read-outs of the screen, such as a control signal, another cell line or another target. No call is given for them. Compounds called inactive in the main read-out are mostly missing here. Words in brackets tell the shape of the fitted curve; partial curves, single points and poor fits give uncertain potencies.

Test: qHTS Assay for Lipid Storage Modulators in Drosophila S3 Cells;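 on cell number change: cells counted by Cell Tracker Red CMTPX staining in the red channel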
Conditions: BODIPY lipid droplet fluorescence, 18-24 h; for cell number change: measured here: cell count max response, cells fed with added oleic acid
How it was run: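 Laser-scanning cytometry quantifies lipid droplet accumulation (500–530 nm total intensity; droplet/cell object ratio) in oleic acid-fed (400 uM added) Drosophila S3 cells treated with a concentration series. 20 uM Triacsin C defined 100% inhibition.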

[1] = measured here: lipid fluorescence (Fed channel) AC50, cells fed with added oleic acid
[2] = measured here: cell number channel AC50, cells fed with added oleic acid

SMILES | cell number change | AC50 [1] | AC50 [2]
O=C(CSc1nnc(C2COc3ccccc3O2)o1)N1CCCc2ccccc21 (stereo not given) | 11% | – | –
COc1ccc(C)cc1C1=CC(=O)C[C@H](c2ccc(F)cc2)C1 | 11.8% | 0.116 µM [falling, single point] | –
COc1ccc(CNC(=O)C(C)Sc2nc3ccccc3c(=O)n2CCCN2CCOCC2)cc1 (stereo not given) | 69.3% | – | 8.2 µM [rising, partial curve, poor fit]
O=C(NC1CCCCC1)c1ccc(CNc2c(N3CCOCC3)c(=O)c2=O)cc1 | -9.12% | 4.11 µM [falling, partial curve] | –
COc1ccc(NC(=O)C2CCN(S(=O)(=O)c3cccc4nonc34)CC2)cc1OC | -40.5% | – | 7.31 µM [falling, partial curve]
CCOc1ccccc1NC(=O)COc1ccc2ccc(=O)oc2c1 | -15.8% | – | –
O=C(NNC(=O)c1ccccc1OCc1ccccc1)c1ccccc1O | -11.9% | 29.1 µM [falling, single point] | –
Fc1cccc(Cl)c1COc1ccc(-c2nnco2)cc1 | 11.5% | 1.3 µM [falling, full curve] | 0.58 µM [rising, partial curve, poor fit]
CCCN(C(=O)c1cc(S(=O)(=O)N2CCCCC2)ccc1Cl)C1CCS(=O)(=O)C1 (stereo not given) | 23.9% | – | 4.61 µM [rising, full curve, poor fit]
COCCN(C(C)=O)c1nnc(-c2cnccn2)s1 | 25.7% | – | 2.91 µM [rising, full curve, poor fit]
CC(=O)Nc1cccc(-c2csc(Nc3cccc(C)n3)n2)c1 | -22.4% | – | –
C#CCSc1nsc(SCC#C)c1C#N | -16.5% | 8.2 µM [falling, partial curve] | –
NS(=O)(=O)c1ccc(N=Cc2c(O)c3ccccc3oc2=O)cc1 | -7.16% | 2.06 µM [falling, partial curve] | 0.651 µM [falling, full curve]
O=C(OCc1ccc(-c2ccccc2)cc1)c1cccc(O)c1 | -14.6% | 4.61 µM [falling, partial curve, poor fit] | –
COc1cccc(C(=O)Nc2c3c(nn2-c2ccc([N+](=O)[O-])cc2)CS(=O)(=O)C3)c1 | -28.8% | 29.1 µM [falling, single point] | –
Cc1cc(C)c(C(=O)C(C)OC(=O)C2=COCCO2)cc1C (stereo not given) | 1.69% | 0.651 µM [rising, single point] | –
Cc1onc(-c2ccccc2Cl)c1C(=O)Nc1cccc(S(=O)(=O)NC2=NCCC2)c1 | 17.3% | – | –
O=C(CN1C(=O)NC(Cc2c[nH]c3ccccc23)C1=O)Nc1cccc(S(=O)(=O)N2CCCCCC2)c1 (stereo not given) | – | 18.4 µM [rising, single point] | –
CCC1CCCCN1C(=O)c1ccccc1OC1CCN(S(C)(=O)=O)CC1 (stereo not given) | -12.1% | 0.00517 µM [falling, full curve, poor fit] | –
CC1CCN(C(=O)COC(=O)[C@H](C)NS(=O)(=O)/C=C/c2ccccc2)CC1 | -34.2% | 16.4 µM [falling, partial curve] | –

SMILES | cell number change | AC50 [1] | AC50 [2]
COc1ccc(/C=N/NC(=S)N[C@H]2CC3CCC2C3)cc1 (stereo not given in full) | – | 0.731 µM [rising, full curve] | 0.291 µM [rising, full curve, poor fit]
CCN1CCN(Cc2c(O)ccc3c(=O)c(-c4ccc(OC)c(OC)c4)c(C(F)(F)F)oc23)CC1 | 7.75% | – | –
CC(C)(C)c1cc(C(F)(F)F)c(C#N)c(=O)[nH]1 | -9.08% | 0.411 µM [falling, partial curve, poor fit] | –
CCOc1ccccc1OCC(=O)Nc1ccc2[nH]c(=O)[nH]c2c1 | 17.1% | 2.06 µM [rising, full curve, poor fit] | –
COc1ccc(Cn2nnnc2C(c2cc3cc(C)ccc3[nH]c2=O)N2CCOCC2)cc1 (stereo not given) | -9.64% | 4.11 µM [falling, single point] | –
O=S(=O)(Nc1nc2ccccc2nc1Nc1cccc(S(=O)(=O)N2CCCCC2)c1)c1ccccc1 | -3.06% | – | –
CCCCOc1ccccc1Cn1c(=O)oc2ccc(C)cc21 | -18.5% | 3.26 µM [rising, partial curve] | –
CCOC(=O)C1=C(C)Nc2sc(C(=O)c3ccc(Br)cc3)c(N)c2C1c1ccc(C(=O)OC)cc1 (stereo not given) | 116% | 0.184 µM [rising, full curve] | 0.146 µM [rising, full curve]
Cc1ccc(NC(=O)CSc2ncn[nH]2)cc1S(=O)(=O)N1CCOCC1 | 22.4% | 20.6 µM [rising, single point] | –
CCCN(C(=O)Cn1ncc2c([nH]c3ccccc32)c1=O)c1ccccc1C | -3.07% | 1.16 µM [falling, partial curve, poor fit] | –
Cc1nn(C(C)C)c(C)c1CN1CCC(C(=O)Nc2cccc(-c3cccc(F)c3)c2)CC1 | -20.7% | 31.6 µM [falling, single point] | –
Cc1ccc(SCCN2CCC(NC(=O)OCc3ccccc3)CCC2=O)cc1 (stereo not given) | 11.7% | – | –
CC(=O)c1cccc(NC(=O)C(C)OC(=O)CCn2c(C)csc2=O)c1 (stereo not given) | 10.5% | 6.51 µM [falling, single point] | –
COc1ccc2c(c1)OC[C@H]1[C@H]2N2C(=O)c3cc(OC)c(OC)cc3NC(=O)[C@@]2(C)[C@H]1c1ccccc1 | – | 4.11 µM [falling, single point] | –
Cc1cccc(C)c1OC(=O)Cc1ccccc1[N+](=O)[O-] | 29.6% | 8.2 µM [rising, partial curve, poor fit] | –
O=C(COc1ccc(S(=O)(=O)Nc2ccccc2)cc1)NCc1ccccn1 | 8.96% | 1.84 µM [rising, partial curve] | –
CCCCNC(=O)c1onc(CSc2ccccc2)c1C(=O)NCCCC | -16.5% | 1.46 µM [falling, single point] | 4.11 µM [falling, single point]
S=c1nc(-c2ccco2)[nH][nH]1 | 11.7% | – | –
O=C(Nc1cnccn1)c1csc2ccccc12 | 143% | 6.51 µM [rising, single point] | 14.6 µM [rising, partial curve]
Fc1ccc(CN2CCN(C(c3ccccc3)c3ccccc3)CC2)cc1 | – | 23.1 µM [falling, single point] | –

Record cards (already shown). Order of values: cell number change | AC50 [1] | AC50 [2]
`Fc1ccc(CN2CCN(C(c3ccccc3)c3ccccc3)CC2)cc1` is listed with – | 23.1 µM [falling, single point] | –
`CCN1CCN(Cc2c(O)ccc3c(=O)c(-c4ccc(OC)c(OC)c4)c(C(F)(F)F)oc23)CC1` is listed with 7.75% | – | –

Additional results follow:

SMILES | cell number change | AC50 [1] | AC50 [2]
COc1ccc(/C=C2\Oc3cc(OCC(=O)N4CCC[C@H]4C(=O)O)ccc3C2=O)c(OC)c1OC | 6.8% | 29.1 µM [rising, single point] | –
NC(=O)c1cc([N+](=O)[O-])ccc1NCc1cccc(N)c1 | -19.3% | 7.31 µM [falling, partial curve, poor fit] | 4.11 µM [falling, single point]
CC(=O)Nc1ccc(S(=O)(=O)N2CCC(C(=O)Nc3nccs3)CC2)cc1 | -7.98% | 0.0164 µM [falling, full curve, poor fit] | –
COc1ccc(CCNC(=O)c2c[nH]c3ccc(F)cc3c2=O)cc1OC | -18.2% | 0.00461 µM [falling, full curve, poor fit] | –
COc1ccc(-n2nnnc2SCC(=O)N2C(C)CCCC2C)c(OC)c1 (stereo not given) | 47.5% | 5.17 µM [rising, single point] | 14.6 µM [rising, partial curve]
C/C(Cl)=C\Cn1c(NCCCn2ccnc2)nc2c1c(=O)n(C)c(=O)n2C | -10.8% | 0.164 µM [rising, full curve, poor fit] | –
CC(C)c1ccc(C2C(C#N)=C(N)Oc3c2oc(CO)cc3=O)cc1 (stereo not given) | 9.71% | 0.0184 µM [rising, full curve, poor fit] | –
COc1cccc(-c2nnc(SCc3ccccn3)n2C)c1 | 15.5% | – | –
CCN(C(=O)COC(=O)CNC(=O)c1cccc(C)c1)c1c(N)n(Cc2ccccc2)c(=O)[nH]c1=O | -44.3% | – | 29.1 µM [falling, single point]
CC(C)c1[nH]nc2c1C(c1ccco1)C(C#N)=C(N)O2 (stereo not given) | -24% | 14.6 µM [falling, partial curve] | –
O=C(NCc1ccco1)c1nn2c(C(F)(F)F)cc(-c3cccs3)nc2c1Cl | -16.9% | 0.184 µM [rising, full curve, poor fit] | –
COc1ccc(CSc2nnc(N)s2)cc1F | 10.3% | 11.6 µM [rising, partial curve] | –
CC(C)COC(=O)N1CCN(S(=O)(=O)c2ccc3c(c2)CCC3)CC1 | 3.31% | 0.461 µM [rising, full curve, poor fit] | –
COc1ccc(NC(=O)Cc2ccc(Cl)cc2)cc1S(=O)(=O)N1CCCCC1 | -5.48% | – | –
O=C(C1CCC(=O)N(C2CC2)C1)N1CCN(c2ccccc2Cl)CC1 (stereo not given) | 10.7% | 0.326 µM [falling, partial curve, poor fit] | –
CCOc1ccccc1NC(=O)CCCn1cc([N+](=O)[O-])cn1 | -13.5% | 0.731 µM [rising, single point] | –
C=CCn1c(SCCOC)nc2c1c(=O)[nH]c(=O)n2C | 16.7% | 0.00461 µM [falling, full curve, poor fit] | –
CCOC(=O)CC1C(=O)NCCN1C(=O)Nc1ccc(Cl)cc1 (stereo not given) | -5.71% | 0.92 µM [falling, single point] | 6.51 µM [rising, single point]
O=C(NC1CCCCC1)n1c(=O)oc2ccccc21 | 10.5% | 32.6 µM [falling, single point] | –
COC(=O)c1ccc(C(=O)OC)c(NC(=O)/C=C/C(=O)O)c1 | 19.9% | – | 4.11 µM [rising, full curve, poor fit]
